The target in assay [1] is T1, RalGPS2 (Ral GEF with PH domain and SH3-binding motif 2) (human (endogenous in 5637 and HEK293)) (UniProt Q86X27).
T1 sequence: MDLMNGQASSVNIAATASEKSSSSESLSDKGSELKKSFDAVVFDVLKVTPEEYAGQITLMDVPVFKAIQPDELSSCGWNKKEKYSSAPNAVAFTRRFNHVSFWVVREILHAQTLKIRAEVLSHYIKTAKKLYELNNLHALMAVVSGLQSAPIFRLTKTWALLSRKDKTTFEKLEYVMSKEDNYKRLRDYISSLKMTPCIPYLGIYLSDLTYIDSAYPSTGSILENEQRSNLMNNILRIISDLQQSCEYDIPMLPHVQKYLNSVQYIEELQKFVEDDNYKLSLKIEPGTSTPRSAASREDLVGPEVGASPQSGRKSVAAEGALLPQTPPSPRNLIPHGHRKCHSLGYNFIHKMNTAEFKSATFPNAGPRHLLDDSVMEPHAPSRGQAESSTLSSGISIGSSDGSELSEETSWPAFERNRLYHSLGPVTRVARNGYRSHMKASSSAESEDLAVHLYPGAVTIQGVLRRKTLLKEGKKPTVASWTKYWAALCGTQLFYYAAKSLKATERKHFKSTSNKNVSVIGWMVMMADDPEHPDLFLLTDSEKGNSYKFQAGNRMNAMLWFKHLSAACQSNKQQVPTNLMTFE
Kind of assay: co-IP; HEK293 cells, endogenous proteins; serum-starved (0.5% FBS) 18 h, then stimulated with 10% FBS for 15 min (S) or left unstimulated (NS); IP with anti-RalGPS2, anti-LST1 or anti-Sec5 antibodies, western blot. (In western blotting, separated proteins are transferred to a membrane and probed.)

Protein sequences, listed by entry. Tags and fused reporters are not part of them.
UniProt O00453: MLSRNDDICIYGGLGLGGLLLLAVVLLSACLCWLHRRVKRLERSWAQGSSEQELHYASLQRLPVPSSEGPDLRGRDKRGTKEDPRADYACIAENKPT
UniProt Q96KP1: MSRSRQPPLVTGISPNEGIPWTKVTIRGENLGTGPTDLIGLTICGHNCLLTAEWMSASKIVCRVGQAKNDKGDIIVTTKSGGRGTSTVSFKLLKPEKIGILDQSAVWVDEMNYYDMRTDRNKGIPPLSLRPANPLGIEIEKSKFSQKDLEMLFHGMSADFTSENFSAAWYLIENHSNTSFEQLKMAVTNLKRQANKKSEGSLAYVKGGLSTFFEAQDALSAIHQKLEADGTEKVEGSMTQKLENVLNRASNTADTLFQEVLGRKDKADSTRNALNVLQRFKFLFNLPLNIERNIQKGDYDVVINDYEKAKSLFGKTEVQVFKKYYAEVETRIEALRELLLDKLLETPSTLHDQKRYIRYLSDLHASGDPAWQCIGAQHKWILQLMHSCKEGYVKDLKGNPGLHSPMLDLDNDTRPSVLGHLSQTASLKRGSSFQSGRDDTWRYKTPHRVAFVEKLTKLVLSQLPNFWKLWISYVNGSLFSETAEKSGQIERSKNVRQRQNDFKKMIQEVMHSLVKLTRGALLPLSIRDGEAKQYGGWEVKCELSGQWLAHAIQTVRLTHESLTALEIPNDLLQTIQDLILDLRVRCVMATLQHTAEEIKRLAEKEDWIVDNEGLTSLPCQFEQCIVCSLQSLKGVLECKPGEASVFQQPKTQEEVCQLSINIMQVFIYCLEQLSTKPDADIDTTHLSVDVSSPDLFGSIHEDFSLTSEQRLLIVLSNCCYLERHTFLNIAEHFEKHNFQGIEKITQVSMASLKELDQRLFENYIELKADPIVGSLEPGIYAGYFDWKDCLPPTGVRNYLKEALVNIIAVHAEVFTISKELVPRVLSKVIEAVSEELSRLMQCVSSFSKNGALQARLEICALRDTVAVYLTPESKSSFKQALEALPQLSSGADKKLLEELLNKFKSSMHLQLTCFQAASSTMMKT

Assay [2] concerns the target transmembrane MHC class III protein leukocyte-specific transcript 1 (LST1) (human (endogenous in HEK293)) (UniProt O00453). The assay is described as above.
Assay [3] has as its target T1, RalGPS2 (Ral GEF with PH domain and SH3-binding motif 2) (human (endogenous in 5637 and HEK293)). The assay is described as above. The source holds these as a separate data set.
In assay [4] the target is Sec5 (human (endogenous in HEK293)) (UniProt Q96KP1). The description is as above.
The target of assay [5] is transmembrane MHC class III protein leukocyte-specific transcript 1 (LST1) (human (endogenous in HEK293)) (UniProt O00453). The description is as above. The source holds these as a separate data set.
For assay [6], the target named is T1, RalGPS2 (Ral GEF with PH domain and SH3-binding motif 2) (human (endogenous in 5637 and HEK293)). Kind of assay: co-IP; 5637 cells, endogenous proteins; serum-starved (0.5% FBS) 18 h, then stimulated with 10% FBS for 15 min (S) or left unstimulated (NS); IP with anti-RalGPS2 antibodies, western blot.

4 molecules from article PMC8699646 can be followed below.

Read-outs that look alike come from different tables or passages of the source. No constants are given. Whether binding was seen depends on the method and setting. Binding seen in cells or lysates may run through a third protein. Some binding calls cover weakened binding; strength is not graded here.

“transmembrane MHC class III protein leukocyte-specific transcript 1 (LST1) (from UniProt O00453 1-97)”: in assay [1], the binding result is listed as “binds”.

For the molecule Sec5 (from UniProt Q96KP1 1-924), the binding result in assay [1] and in assay [2] was “binds” throughout.

B1: RalA GTPase (protein, UniProt P11233 1-206)
chain: MAANKPKGQNSLALHKVIMVGSGGVGKSALTLQFMYDEFVEDYEPTKADSYRKKVVLDGEEVQIDILDTAGQEDYAAIRDNYFRSGEGFLCVFSITEMESFAATADFREQILRVKEDENVPFLLVGNKSDLEDKRQVSVEEAKNRAEQWNVNYVETSAKTRANVDKVFFDLMREIRARKMEDSKEKNGKKKRKSLAKRIRERCCIL
B1: the binding entry in assay [3], in assay [4] and in assay [5] was “binds” throughout.

B2: TNFα-induced protein 2 (TNFαIP2, also known as M-Sec) (protein, UniProt Q03169 1-654)
chain: MSEASSEDLVPPLEAGAAPYREEEEAAKKKKEKKKKSKGLANVFCVFTKGKKKKGQPSSAEPEDAAGSRQGLDGPPPTVEELKAALERGQLEAARPLLALERELAAAAAAGGVSEEELVRRQSKVEALYELLRDQVLGVLRRPLEAPPERLRQALAVVAEQEREDRQAAAAGPGTSGLAATRPRRWLQLWRRGVAEAAEERMGQRPAAGAEVPESVFLHLGRTMKEDLEAVVERLKPLFPAEFGVVAAYAESYHQHFAAHLAAVAQFELCERDTYMLLLWVQNLYPNDIINSPKLVGELQGMGLGSLLPPRQIRLLEATFLSSEAANVRELMDRALELEARRWAEDVPPQRLDGHCHSELAIDIIQITSQAQAKAESITLDLGSQIKRVLLVELPAFLRSYQRAFNEFLERGKQLTNYRANVIANINNCLSFRMSMEQNWQVPQDTLSLLLGPLGELKSHGFDTLLQNLHEDLKPLFKRFTHTRWAAPVETLENIIATVDTRLPEFSELQGCFREELMEALHLHLVKEYIIQLSKGRLVLKTAEQQQQLAGYILANADTIQHFCTQHGSPATWLQPALPTLAEIIRLQDPSAIKIEVATYATCYPDFSKGHLSAILAIKGNLSNSEVKRIRSILDVSMGAQEPSRPLFSLIKVG
As for B2, the binding result in assay [6] and in assay [3] was “binds” each time.
